Laboratory results: patent US20210380556A1, “HETEROARYLAZOLE COMPOUND AND PEST CONTROL AGENT” (Nippon Soda Co., Ltd., priority 2018, published 2021)
Some entries share one result that the patent states for a list of compounds.

Columns and labels:
Assay type in all cases: in vivo
Aphis craccivora = assay: Test Example 5: efficacy on Aphis craccivora (spray on black-eyed peas); conditions: 125 ppm; sprayed to black-eyed peas with nymphs; after 4 days
Nilaparvata lugens = assay: Test Example 8: efficacy on Nilaparvata lugens (rice seedling dip); conditions: 125 ppm; rice seedlings dipped 30 seconds; second instar larvae; after 7 days
Mythimna separata = assay: Test Example 2: efficacy on Mythimna separata (corn leaf dip); conditions: 125 ppm; corn leaves dipped 30 seconds; second instar larvae; after 6 days
[1] = system: Phyllotreta striolata adults; assay: Test Example 7: efficacy on Phyllotreta striolata, 2 ppm spray; conditions: sprayed to Qing geng cai seedlings, after 7 days
[2] = system: Phyllotreta striolata adults; assay: Test Example 6: efficacy on Phyllotreta striolata, 125 ppm spray; conditions: sprayed to Qing geng cai seedlings, after 7 days

| Structure (SMILES) | insecticidal rate (Aphis craccivora) | insecticidal rate (Nilaparvata lugens) | other results |
| --- | --- | --- | --- |
| CCS(=O)(=O)c1cnc(-c2ncn(C)n2)nc1-c1ncc(C(F)(F)C(F)(F)C(F)(F)F)n1C [a-1] | ≥ 80% | ≥ 80% |  |
| CCS(=O)(=O)c1cnc(-c2ncn(C)n2)nc1-c1ncc(C(F)(F)C(F)(F)C(F)(F)C(F)(F)F)n1C [a-2, 5-(ethylsulfonyl)-2-(1-methyl-1H-1,2,4-triazol-3-yl)-4-(1-methyl-5-(perfluorobutyl)-1H-imidazol-2-yl)pyrimidine] | ≥ 80% | ≥ 80% | insecticidal rate (Mythimna separata): ≥ 80% |
| CCS(=O)(=O)c1cnc(-c2ncccn2)nc1-c1ncc(C(F)(F)C(F)(F)C(F)(F)F)n1C [a-3] |  | ≥ 80% |  |
| CCS(=O)(=O)c1cnc(-c2ncccn2)nc1-c1ncc(C(F)(F)C(F)(F)C(F)(F)C(F)(F)F)n1C [a-4] |  | ≥ 80% |  |
| CCS(=O)(=O)c1cnc(-n2ncnc2N)nc1-c1ncc(C(F)(F)C(F)(F)C(F)(F)C(F)(F)F)n1C [a-6] | ≥ 80% |  |  |
| CCS(=O)(=O)c1cnc(OC)nc1-c1ncc(C(F)(F)C(F)(F)C(F)(F)C(F)(F)F)n1C [a-9] | ≥ 80% | ≥ 80% |  |
| CCS(=O)(=O)c1cc(-c2ncccn2)cnc1-c1ncc(C(F)(F)C(F)(F)C(F)(F)F)n1C [b-19, 2-(5-(ethylsulfonyl)-6-(1-methyl-5-(perfluoropropyl)-1H-imidazol-2-yl)pyridin-3-yl)pyrimidine] |  | ≥ 80% | insecticidal rate (Mythimna separata): ≥ 80% |
| CCS(=O)(=O)c1cc(/C=N/OCC(F)(F)C(F)(F)F)cnc1-c1ncc(C(F)C(F)(F)C(F)(F)F)n1C (centres unmarked) [c-1] |  |  | insecticidal rate [1]: ≥ 80%; insecticidal rate [2]: ≥ 80% |
| CCS(=O)(=O)c1cc(/C=N\OCC(F)(F)C(F)(F)F)cnc1-c1ncc(C(F)C(F)(F)C(F)(F)F)n1C (centres unmarked) [c-2] |  |  | insecticidal rate [2]: ≥ 80% |
| CCS(=O)(=O)c1cc(C2CC2)c[n+]([O-])c1-c1n(C)c(C(F)C(F)(C(F)(F)F)C(F)(F)F)c[n+]1[O-] (centres unmarked) [c-7] | ≥ 80% |  |  |
| CCS(=O)(=O)c1cc(C2CC2)c[n+]([O-])c1-c1ncc(C(F)C(F)(C(F)(F)F)C(F)(F)F)n1C (centres unmarked) [c-8] | ≥ 80% |  |  |
